Results are given in words; binding and its absence hold for the method and conditions named.
Target: PfHsp70‐x C‐terminal truncated version with a missing EEVN motif (Plasmodium falciparum)
Assay: SPR; PfHsp70‐x or PfHsp70‐xT immobilised on ProteOn GLC chips, peptides as analytes at 1.25-20 nM, 25°C, PBS‐Tween pH 7.4, with 2 mM ATP; both purified

Binder | binding
ALLLMYRR [peptide ALLLMYRR] | no binding (only with 2 mM ATP)
ANNNMYRR [peptide ANNNMYRR] | no binding (only with 2 mM ATP)

— PMC6282620, “Structural and biochemical characterization of Plasmodium falciparum Hsp70‐x reveals functional versatility of its C‐terminal EEVN motif” (Proteins, 2018)
